Values from PubChem BioAssay AID602196 (INSERM, 2012).
Test: 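Knock-downs that protect lung cancer cells from cisplatin or sensitise them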. Cell system: human A549 lung cancer cells. Knock-down reagent: siRNA pair against human genes. Timing: 48 h transfection before cisplatin; time from cisplatin to read-out not stated. Conditions: cisplatin at a dose killing half of control-siRNA cells; exact dose and duration not given. Measured: 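Cisplatin cell death as a shift from the 50% death seen with control siRNA; siRNAs toxic or growth-blocking alone scored 0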. Reading the numbers: two-siRNA summed score (-2 to +2): higher = both siRNAs protect from cisplatin killing; -2 means both sensitise; mean protection from cisplatin (shift in death) and protection from cisplatin (shift in death), siRNA C and protection from cisplatin (shift in death), siRNA D: higher = protection from cisplatin killing. Call rule: 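Each siRNA scores 0 if harmful alone by LDH or WST-1, otherwise +1 if it reduces and -1 if it increases cisplatin killing; a gene is active when both siRNAs agree (sum +2 or -2)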. Meaning of the calls: active = both siRNAs shift cisplatin killing the same way; inactive = no consistent shift, or siRNA harmful alone.
Here is a random part of about 23,000 reagents tested. Of all reagents, 455 (2%) got an active call. 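Active includes both protection and sensitisation; some change values fall well beyond the stated -50 to +50 range.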 Reagent sequences are not shown. The record does not give: the amount of reagent.

Target gene | two-siRNA summed score (-2 to +2) | mean protection from cisplatin (shift in death) (%) | protection from cisplatin (shift in death), siRNA C (%) | protection from cisplatin (shift in death), siRNA D (%) | call
LOC387856 | 0 | 10.3 | 11 | 9.6 | inactive
GABRG1 | 0 | -4.6 | -2 | -7.3 | inactive
INO80E | 0 | 2.4 | 10.3 | -5.6 | inactive
MARCHF6 | 0 | -1.7 | 6 | -9.5 | inactive
BCKDHB | 0 | 7.8 | 9.3 | 6.2 | inactive
SLC25A16 | -1 | -4.8 | 12.4 | -22 | inactive
FRMPD3 | 0 | 12.2 | 10.2 | 14.3 | inactive
BNC1 | 1 | 14 | 15.5 | 12.4 | inactive
LOC402157 | 0 | -4.4 | -13.5 | 4.6 | inactive
EMC8 | 0 | 4.8 | 11.1 | -1.4 | inactive
SLN | 1 | 11.5 | 20.7 | 2.4 | inactive
LOC442719 | 0 | 13.1 | 15.3 | 11 | inactive
NPY4R | 0 | 8.3 | 3.5 | 13.2 | inactive
LIPC | -1 | -13.2 | -39.1 | 12.7 | inactive
NPC1L1 | 0 | 0.9 | -0.8 | 2.6 | inactive
MYT1L | 0 | 22.8 | 17.4 | 28.2 | inactive
LOC392702 | 0 | 7.8 | 4.4 | 11.3 | inactive
SCO1 | 1 | 8.8 | 1.5 | 16.2 | inactive
LOC441444 | 0 | 2.8 | 6.2 | -0.5 | inactive
ALDH8A1 | -1 | -1.2 | -9 | 6.6 | inactive
PPP4C | 0 | 0.7 | -6 | 7.3 | inactive
FKBP11 | 0 | 4 | -3.2 | 11.2 | inactive
POLB | 0 | -16.2 | -12.3 | -20.1 | inactive
LOC390407 | 0 | 4.4 | 2.8 | 6.1 | inactive
HNRNPA0 | 0 | 4.5 | 5.3 | 3.8 | inactive
LOC391807 | 1 | 11.1 | -3.3 | 25.5 | inactive
NUP160 | 0 | 10.4 | 3.8 | 17 | inactive
NPTX2 | 0 | 0.1 | 10.9 | -10.8 | inactive
GAPDH | 0 | -6.1 | -8.3 | -3.9 | inactive
RABL6 | 0 | 9.1 | 8.1 | 10 | inactive
LOC442144 | 1 | 12.8 | 9.6 | 16 | inactive
LOC441429 | 1 | -2.1 | 9.2 | -13.4 | inactive
CLEC4F | 0 | 10.6 | 12.8 | 8.4 | inactive
NCKAP5 | 0 | 24.4 | 36.4 | 12.5 | inactive
LOC440601 | 0 | 7 | -2.9 | 17 | inactive
HSPA8 | 0 | -3.1 | -9.8 | 3.5 | inactive
VPS52 | 1 | 7.1 | -8.5 | 22.7 | inactive
PSG3 | 0 | 5.2 | 5.6 | 4.7 | inactive
LOC391428 | 0 | 13.1 | 24.7 | 1.5 | inactive
CHRNA3 | 0 | 12.3 | 4.4 | 20.1 | inactive
ZCCHC7 | 0 | 5.7 | 7.9 | 3.4 | inactive
ESD | 0 | 4.7 | 9.8 | -0.3 | inactive
C7orf33 | -1 | -2.6 | -10.8 | 5.6 | inactive
CD247 | -1 | -6.6 | 7.7 | -20.9 | inactive
TGFB1I1 | 0 | -0.6 | -6.5 | 5.2 | inactive
GRAMD1A | 0 | -0.4 | 0 | -0.7 | inactive
LMBRD1 | 1 | 5.3 | 15.1 | -4.4 | inactive
SLC5A9 | 1 | 7.2 | 14 | 0.3 | inactive
UBQLN4P1 | 0 | 6.3 | 6.8 | 5.9 | inactive
RNPEP | 0 | 10.2 | 12.5 | 7.8 | inactive
TBX20 | 0 | 9.2 | 10.2 | 8.2 | inactive
HMGCS2 | 0 | 3.5 | 6.7 | 0.3 | inactive
CCDC116 | 0 | 0.2 | 2.8 | -2.5 | inactive
CELSR3 | 0 | -6.5 | -17.8 | 4.8 | inactive
LOC442597 | 0 | 8 | -0.3 | 16.4 | inactive
UROD | 0 | -9.3 | -2 | -16.7 | inactive
HHIP | 0 | 1.9 | 5.1 | -1.3 | inactive
